PubChem BioAssay AID504444 (National Center for Advancing Translational Sciences (NCATS), 2011)
Among all 360,000 compounds or so, about 7,500 (2.1%) were called active. The shares of active, inactive and inconclusive entries below differ from those in the screen. Calls follow the shape of the dose curve; as a rule, active = well fitted inhibition curve with a large enough effect; inconclusive = small, poorly fitted or top-dose-only effect, or effect the other way; inactive = flat fitted curve, though single readings scatter. A potency beside an inconclusive call is a rough fit, not a confirmed value.

assay: Nrf2 qHTS screen for inhibitors; conditions: A549 ARE-Fluc reporter, luciferase luminescence, 18-24 h; activity change, negative = inhibition: at 46 µM (top of the series); also: nearly all actives have a fitted effect of over 60% in size
Summary of the method: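 Two sequential reads on A549 ARE_Fluc cells exposed to compound for 18-24 h: a CellTiter-Fluor fluorescence read for viability, then a luciferase luminescence read for Nrf2/ARE activity.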
% is scaled to controls: 0 for no effect and ±100 for the full control effect; potency is read from the fitted curve at half-maximal effect.

Row | SMILES | Potency | activity change, negative = inhibition
1 | Cc1ccc(C(=O)N2CCN(c3ccc([N+](=O)[O-])cc3-n3cccc3)CC2)cc1 | inconclusive: 32.6 µM [falling, single point] | –
2 | O=C(/C=C/c1ccccc1)NC(NC(=S)Nc1cc(Cl)ccc1Cl)C(Cl)(Cl)Cl (configuration not stated) | active: 4.11 µM | –
3 | c1ccc2c(C3=NNC(=NC4CC4)SC3)c[nH]c2c1 | inconclusive: 2.06 µM [activator, partial curve] | –
4 | COc1ccc(NC(=O)c2[nH]c(C)c(C(C)=O)c2C)cc1Cl | inconclusive: 0.164 µM [activator, full curve, poor fit] | –
5 | CCC(=O)Nc1ccc(-c2cc3ccccc3oc2=O)cc1 | inconclusive: 23.1 µM [activator, single point] | –
6 | O=C(Nc1cccc2c1CCCC2)C1CCN(c2nnnn2-c2ccccc2)CC1 | inconclusive: 13 µM [falling, partial curve, poor fit] | –
7 | CC(C)CCNC(=S)Nc1ccc(Br)cc1 | inconclusive: 29.1 µM [falling, single point] | –
8 | CSc1nnc(NC(=O)c2cc(=O)c3cc(C)cc(C)c3o2)s1 | – | inactive: -11.1%
9 | CCOC(=O)CSc1nc2c(sc(=S)n2-c2ccc(OCC)cc2)c(=O)[nH]1 | – | inactive: -25.9%
10 | COc1ccc(C)cc1NC1(c2ccccc2)C(=O)c2ccccc2C1=O | inconclusive: 25.9 µM [activator, single point] | –
11 | O=C(Nc1ccc(NC(=O)C2CC2)cn1)c1ccccc1 | inconclusive: 0.164 µM [activator, full curve, poor fit] | –
12 | COc1ccc(OC)c(N(C)S(=O)(=O)c2ccc3c(c2)NC(=O)CC(=O)N3)c1 | – | inactive: -8.84%
13 | COc1ccccc1N1CCN(C(=O)CN(Cc2ccccc2)S(C)(=O)=O)CC1 | – | inactive: 20.9%
14 | CC1Sc2ccc(C(=O)NCc3cccc(C(F)(F)F)c3)cc2NC1=O (configuration not stated) | inconclusive: 14.6 µM [falling, partial curve] | –
15 | Cc1ccc(-c2nnc(-c3cccc(Br)c3)o2)cc1 | inconclusive: 4.61 µM [activator, full curve] | –
16 | CNC(=S)NNC(=O)c1sc2cc(C(F)(F)F)cnc2c1-c1cccnc1 | – | inactive: -12%
17 | COc1cccc(/C=C/C(=C2/C(=O)N(c3ccccc3)N=C2C)c2ccc(C)cc2)c1OC | – | inactive: 4.03%
18 | CCOCCOC(=O)c1[nH]c2c(c1C)C(=O)CC(c1cccs1)C2 (configuration not stated) | inconclusive: 32.6 µM [falling, single point] | –
19 | Cc1cccc(OCC(=O)Nc2ccc3c(c2)nc(CCN2CCN(C)CC2)n3C)c1 | inconclusive: 16.4 µM [falling, single point] | –
20 | Cc1cc(C)c(NC(=O)CNC(=O)COC(=O)/C=C/c2cccs2)c(C)c1 | – | inactive: 19.7%
21 | Oc1c(Br)cc(/C=N/Nc2nncc3ccccc23)cc1Br | inconclusive: 14.6 µM [activator, partial curve] | –
22 | CCCn1c(=O)c2sccc2n2c(CCCC(=O)N3CCN(c4ccc(OC)cc4)CC3)nnc12 | inconclusive: 25.9 µM [falling, single point] | –
23 | O=C(NNC(=O)c1cccc(S(=O)(=O)N2CCN(c3ccccc3)CC2)c1)c1ccc(Cl)cc1 | inconclusive: 13 µM [falling, partial curve, poor fit] | –

Grouped by structure: the compounds so far with an aryl thioether with sulfur outside any ring.
Row | SMILES | Potency | activity change, negative = inhibition
8 | CSc1nnc(NC(=O)c2cc(=O)c3cc(C)cc(C)c3o2)s1 | – | inactive: -11.1%
9 | CCOC(=O)CSc1nc2c(sc(=S)n2-c2ccc(OCC)cc2)c(=O)[nH]1 | – | inactive: -25.9%

Excerpt, nos. 4 to 5
Row | SMILES | Potency | activity change, negative = inhibition
4 | COc1ccc(NC(=O)c2[nH]c(C)c(C(C)=O)c2C)cc1Cl | inconclusive: 0.164 µM [activator, full curve, poor fit] | –
5 | CCC(=O)Nc1ccc(-c2cc3ccccc3oc2=O)cc1 | inconclusive: 23.1 µM [activator, single point] | –

The listing continues.

Row | SMILES | Potency | activity change, negative = inhibition
24 | O=C(Nc1ccc(-c2ccccc2)cc1)c1ccccc1 | – | inactive: -16.9%
25 | CC1CCN(S(=O)(=O)c2ccc3nc(Nc4cccc(F)c4)ccc3c2)CC1 | active: 20.6 µM | –
26 | O=C(Nc1nc(-c2ccc(S(=O)(=O)N3CCCCCC3)cc2)cs1)c1ccccc1 | active: 2.91 µM | –
27 | O=C(NC(=S)Nc1cccc(Cl)c1N1CCCCC1)c1ccco1 | inconclusive: 29.1 µM [falling, single point] | –
28 | CCOC(=O)CNC(=O)CSc1nc(Cc2ccccc2)nc2ccccc12 | inconclusive: 29.1 µM [falling, partial curve, poor fit] | –
29 | COc1ccc(CCNC(=O)CC2(CC3=NS(=O)(=O)c4ccccc4N3)CCCC2)cc1OC | inconclusive: 25.9 µM [falling, single point] | –
30 | Cc1ncc([N+](=O)[O-])n1CCOC(=O)c1cc(Cl)cc(Cl)c1N | – | inactive: -20.6%
31 | N#CCc1ccc(NC(=O)c2ccc(S(=O)(=O)N3CCCC3)cc2)cc1 | – | inactive: -23.2%
32 | CC(C)N1CCC(N2CCN(CCCn3cccn3)CC2CCO)CC1 (configuration not stated) | inconclusive: 13 µM [activator, partial curve, poor fit] | –
33 | O=C(CCl)N1c2ccccc2SCC1c1ccccc1 (configuration not stated) | active: 25.9 µM | –
34 | CCCN(CCC)CCCNC(=O)c1ccc2c(Cl)c3c(nc2c1)CCC3 | – | inactive: 0.643%
35 | CCOC(=O)c1c(/N=C/C2C(=O)CCCC2=O)sc2c1CCCC2 | inconclusive: 23.1 µM [activator, single point] | –
36 | Cc1ccc(-n2c(Cc3ccccc3)n[nH]c2=S)c(C)c1 | active: 13 µM | –
37 | CCOC(=O)CC1COc2ccccc2N1C(=O)c1cccc([N+](=O)[O-])c1 (configuration not stated) | inconclusive: 0.92 µM [falling, full curve, poor fit] | –
38 | O=C(Nc1ccc(Cl)cc1Cl)C1=Cc2ccccc2OC1 | inconclusive: 11.6 µM [activator, partial curve] | –
39 | CCC(C(=O)OCC(=O)c1c(N)n(CC(C)C)c(=O)n(C)c1=O)c1ccccc1 (configuration not stated) | active: 23.1 µM | –
40 | CC(=O)/C(=C(/O)c1ccccc1)c1nc2ccccc2[nH]1 | inconclusive: 29.1 µM [activator, single point] | –
41 | O=C(Nc1ccccc1-c1ccccc1)c1ccc(=O)[nH]n1 | inconclusive: 29.1 µM [activator, single point] | –
42 | COc1ccc2[nH]c(C)c(CCNC(=S)Nc3ccc(F)cc3)c2c1 | inconclusive: 16.4 µM [falling, single point] | –
43 | O=C(Nc1ccc(F)cc1F)c1ccc(-n2cnc3cccnc32)cc1 | – | inactive: -7.95%
44 | COc1cc2c(cc1OC)C(C)N(C(=O)c1nccnc1C(=O)O)CC2 (configuration not stated) | – | inactive: -4.97%
45 | O=C(Nc1cccc(Cl)c1)c1ccc2ncsc2c1 | inconclusive: 29.1 µM [falling, single point] | –
46 | O=C(c1cc(Sc2cccc(Cl)c2)nc2ccccc12)N1CCN(c2ccccn2)CC1 | inconclusive: 20.6 µM [falling, single point] | –

Row | SMILES | Potency | activity change, negative = inhibition
47 | Cc1ccc(CSc2nccc(-c3c(C)nc4ccccn34)n2)cc1 | active: 8.2 µM | –
48 | CCCC(=O)NC(=S)NNC(=O)c1ccc([N+](=O)[O-])cc1 | inconclusive: 20.6 µM [falling, partial curve, poor fit] | –
49 | CCCC(=O)Nc1cccc(NC(=O)c2ccc(C)c([N+](=O)[O-])c2)c1 | inconclusive: 16.4 µM [falling, single point] | –
50 | Cc1cccc(S(=O)(=O)C(C#N)c2nc3ccccc3nc2N2CC(C)OC(C)C2)c1 (configuration not stated) | active: 16.4 µM | –
51 | CCC(C(=O)NCc1ccc(F)cc1)N(CCc1ccccc1)C(=O)c1snc(C(N)=O)c1N (configuration not stated) | inconclusive: 29.1 µM [falling, single point] | –
52 | COc1ccc(C)cc1S(=O)(=O)N(C)CC(=O)NCc1ccccn1 | inconclusive: 20.6 µM [falling, partial curve, poor fit] | –
53 | CN(c1ccccc1)c1ccc(/C=C(\C#N)c2nnc3n2CCCCC3)cc1[N+](=O)[O-] | inconclusive: 29.1 µM [activator, single point] | –
54 | N#CCCN(C(=O)COC(=O)c1cccc(S(=O)(=O)Nc2ccc([N+](=O)[O-])cc2)c1)c1ccccc1 | inconclusive: 7.31 µM [falling, partial curve, poor fit] | –
55 | CCN(CC)c1ccc2cc(C(N)=O)c(=O)oc2c1 | inconclusive: 14.6 µM [falling, partial curve, poor fit] | –
56 | CC1(C)C(CSc2nc3ccccc3[nH]2)C1(Cl)Cl (configuration not stated) | inconclusive: 32.6 µM [falling, single point] | –
57 | CC1CCCN(c2ccc([N+](=O)[O-])cc2C(=O)c2ccccc2)C1 (configuration not stated) | inconclusive: 32.6 µM [falling, single point] | –
58 | CC1CCc2c(sc(NC(=O)Cn3cnc([N+](=O)[O-])n3)c2C(N)=O)C1 (configuration not stated) | inconclusive: 13 µM [falling, partial curve] | –
59 | C=CCn1c2ccccc2c2nnc(SCCCn3c(=O)[nH]c4ccccc43)nc21 | active: 13 µM | –
60 | O=C(/C=C/c1ccco1)NCCCN1CCN(CCCNC(=O)/C=C/c2ccco2)CC1 | inconclusive: 9.2 µM [activator, partial curve, poor fit] | –
61 | COc1ccc(C)cc1S(=O)(=O)Nc1cccc(-c2cn3cccnc3n2)c1 | inconclusive: 3.26 µM [activator, single point] | –
62 | CCCCNC(=S)NNc1c(Cl)cc(Cl)cc1Cl | inconclusive: 25.9 µM [falling, partial curve, poor fit] | –
63 | CC(C)C(=O)Nc1nnc(NC(=S)Nc2ccccc2)s1 | inconclusive: 23.1 µM [activator, partial curve, poor fit] | –
64 | c1ccc(Cn2c(-c3ccccc3)nc3nc4ccccc4nc32)cc1 | inconclusive: 20.6 µM [activator, partial curve, poor fit] | –
65 | CC(C)S(=O)(=O)c1cnc(-c2ccccn2)nc1N | inconclusive: 9.2 µM [activator, partial curve, poor fit] | –
66 | C=CCN(C(=O)c1csnn1)C(C(=O)NCc1ccc(F)cc1)c1ccc(F)cc1 (configuration not stated) | inconclusive: 2.06 µM [falling, partial curve, poor fit] | –
67 | N#Cc1c(-n2ncnc2-c2ccccc2Cl)sc2c1CCCCC2 | inconclusive: 2.06 µM [activator, full curve] | –
